Measured values reported in publication PMC11508090.

Key:
[1] = molecular target: T1, Zip2-TurboID (S. cerevisiae) (UniProt P53061); assay: proximity labelling; eleven TurboID fusion strains (ndt80, homozygous) and a no-TurboID control, ~24 h sporulation, two replicates; TCA extract, streptavidin-sepharose pull-down, trypsin, UPLC-MS/MS; targets = in both replicates and in neither control
T1 sequence: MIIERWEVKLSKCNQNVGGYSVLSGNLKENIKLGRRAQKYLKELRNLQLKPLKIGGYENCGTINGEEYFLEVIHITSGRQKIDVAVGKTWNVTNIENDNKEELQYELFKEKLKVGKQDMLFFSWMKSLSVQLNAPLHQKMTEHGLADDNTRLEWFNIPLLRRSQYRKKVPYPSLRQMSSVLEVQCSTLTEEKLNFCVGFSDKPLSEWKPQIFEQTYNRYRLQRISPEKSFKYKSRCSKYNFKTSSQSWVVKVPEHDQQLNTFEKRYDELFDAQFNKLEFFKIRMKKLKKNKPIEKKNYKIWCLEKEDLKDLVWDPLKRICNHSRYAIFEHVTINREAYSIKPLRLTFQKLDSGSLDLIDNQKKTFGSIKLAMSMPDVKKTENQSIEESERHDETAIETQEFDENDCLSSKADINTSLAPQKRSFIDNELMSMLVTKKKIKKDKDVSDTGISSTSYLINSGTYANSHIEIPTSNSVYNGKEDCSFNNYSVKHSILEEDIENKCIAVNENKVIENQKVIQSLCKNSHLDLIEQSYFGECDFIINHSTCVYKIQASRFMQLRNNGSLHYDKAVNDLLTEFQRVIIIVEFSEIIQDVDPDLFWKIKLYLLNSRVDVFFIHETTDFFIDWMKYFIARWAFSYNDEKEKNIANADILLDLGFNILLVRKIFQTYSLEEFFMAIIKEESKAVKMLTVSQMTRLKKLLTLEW

[2] = molecular target: T2, Zip3iTurboID (S. cerevisiae) (UniProt Q06032); assay: as above
T2 sequence: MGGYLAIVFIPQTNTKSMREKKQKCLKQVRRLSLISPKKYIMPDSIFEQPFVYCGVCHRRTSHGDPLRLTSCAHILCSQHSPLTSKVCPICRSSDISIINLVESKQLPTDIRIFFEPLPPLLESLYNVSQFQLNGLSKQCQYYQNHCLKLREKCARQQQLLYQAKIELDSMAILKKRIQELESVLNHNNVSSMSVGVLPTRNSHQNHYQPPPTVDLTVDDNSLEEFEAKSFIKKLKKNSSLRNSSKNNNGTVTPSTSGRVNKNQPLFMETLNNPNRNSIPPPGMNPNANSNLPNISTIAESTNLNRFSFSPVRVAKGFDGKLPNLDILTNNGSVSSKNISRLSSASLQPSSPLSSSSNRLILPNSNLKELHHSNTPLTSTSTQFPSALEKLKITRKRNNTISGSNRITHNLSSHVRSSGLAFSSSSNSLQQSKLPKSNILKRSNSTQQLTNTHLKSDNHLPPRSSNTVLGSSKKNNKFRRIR

B1: Zip1 (protein, UniProt P31111 1-875)
chain: MSNFFRDSSMGFKPRPNIFAKLRVRDVDSDSSANTVVENSSNCLDVGSSIEGDDTFKKPHKTSTEQELITSMSLSQRNHGYSDDMEIGSPKKTTSTDQYNRILKNDVAAIENDTDEDFEITEVREVSEGVAKETKESHGDPNDSETTLKDSKMHEYTMTNGKAPLHTSINNSSTSSNDVLLEAFTNTQRICSNLKQELQKQQQDNAKLKVRLQSYASNSDKINEKVGKYKSCLETLQERIATLTSHKNNQETKLKDLRQNHQLYQRRISGFKTSIENLNKTINDLGKNKKEADAELMKKGKEIEYLKRELDDCSGQLSEEKIKNSSLIQEMGKNREEMIKSIENFFSEDKAHHLLQFNKFEERVHDLFEKKLQKHFDVAKDTLNVGLRNTTVELSSNTETMLKQQYEDIKENLEQKMSSSKDEMAKTINELSVTQKGLIMGVQEELLTSSGNIQTALVSEMNNTRQELLDDASQTAKNYASLENLVKAYKAEIVQSNEYEERIKHLESERSTLSSQKNQIISSLGTKEAQYEDLVKKLEAKNIEISQISGKEQSLTEKNENLSNELKKVQDQLEKLNNLNITTKSNYENKISSQNEIVKALVSENDTLKQRIQQLVEIKENEQKDHTTKLEAFQKNNEQLQKLNVEVVQLKAHELELEEQNRHLKNCLEKKETGVEESLSDVKTLKQQVIVLKSEKQDITAEKLELQDNLESLEEVTKNLQQKVQSQKRELEQKIKELEEIKNHKRNEPSKKGTQNFTKPSDSPKKNATTSNLFPNNSAAIHSPMKKCPKVDHISKSRINSSKETSKFNDEFDLSSSSNDDLELTNPSPIQIKPVRGKIKKGSNCMKPPISSRKKLLLVEDEDQSLKISKKRRRK
binding [1]: binds
binding [2]: binds

No constants are given. Whether binding was seen depends on the method and setting. In cells and extracts the contact can be indirect. A yes stands for co-enrichment or nearness to the bait. Other partners may have been found.
